The supplement of paper PMC10849652
This is one part of the list.

Amino acid sequences for entries named in this document (tags omitted). A change or cut given only in a name is not applied to a line headed by its entry.
UniProt Q9Y255: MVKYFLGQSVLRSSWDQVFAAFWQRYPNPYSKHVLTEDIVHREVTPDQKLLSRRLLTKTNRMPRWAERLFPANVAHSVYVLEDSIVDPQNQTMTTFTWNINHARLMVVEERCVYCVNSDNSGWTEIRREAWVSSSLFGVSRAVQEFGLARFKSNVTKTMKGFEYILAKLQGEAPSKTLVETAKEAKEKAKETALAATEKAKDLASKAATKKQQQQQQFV
UniProt O75400: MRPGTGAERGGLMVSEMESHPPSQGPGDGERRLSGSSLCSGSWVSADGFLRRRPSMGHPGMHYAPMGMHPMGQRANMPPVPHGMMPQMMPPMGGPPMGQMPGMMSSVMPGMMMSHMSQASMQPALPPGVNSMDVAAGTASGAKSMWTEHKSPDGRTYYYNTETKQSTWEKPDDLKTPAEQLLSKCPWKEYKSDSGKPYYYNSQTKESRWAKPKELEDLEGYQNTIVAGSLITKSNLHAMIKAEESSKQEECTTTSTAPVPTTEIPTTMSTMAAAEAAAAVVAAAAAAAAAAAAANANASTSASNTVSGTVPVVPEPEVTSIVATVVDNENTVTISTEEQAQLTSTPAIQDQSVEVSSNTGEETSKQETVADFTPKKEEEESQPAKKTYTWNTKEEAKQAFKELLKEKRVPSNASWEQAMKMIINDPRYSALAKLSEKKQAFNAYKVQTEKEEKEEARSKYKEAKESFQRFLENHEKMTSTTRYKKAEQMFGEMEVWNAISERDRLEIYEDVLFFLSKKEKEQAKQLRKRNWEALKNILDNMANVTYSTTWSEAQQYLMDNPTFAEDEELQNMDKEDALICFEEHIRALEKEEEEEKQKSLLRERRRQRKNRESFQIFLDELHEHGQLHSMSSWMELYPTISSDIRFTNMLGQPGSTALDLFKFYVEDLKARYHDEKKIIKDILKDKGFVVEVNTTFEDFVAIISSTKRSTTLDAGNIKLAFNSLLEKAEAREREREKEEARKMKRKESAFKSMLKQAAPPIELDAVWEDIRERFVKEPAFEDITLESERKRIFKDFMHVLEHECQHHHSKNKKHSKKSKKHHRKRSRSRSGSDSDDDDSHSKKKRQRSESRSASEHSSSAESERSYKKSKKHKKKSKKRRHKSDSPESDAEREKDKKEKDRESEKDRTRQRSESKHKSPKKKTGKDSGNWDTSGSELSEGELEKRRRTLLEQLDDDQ
UniProt Q5JR12: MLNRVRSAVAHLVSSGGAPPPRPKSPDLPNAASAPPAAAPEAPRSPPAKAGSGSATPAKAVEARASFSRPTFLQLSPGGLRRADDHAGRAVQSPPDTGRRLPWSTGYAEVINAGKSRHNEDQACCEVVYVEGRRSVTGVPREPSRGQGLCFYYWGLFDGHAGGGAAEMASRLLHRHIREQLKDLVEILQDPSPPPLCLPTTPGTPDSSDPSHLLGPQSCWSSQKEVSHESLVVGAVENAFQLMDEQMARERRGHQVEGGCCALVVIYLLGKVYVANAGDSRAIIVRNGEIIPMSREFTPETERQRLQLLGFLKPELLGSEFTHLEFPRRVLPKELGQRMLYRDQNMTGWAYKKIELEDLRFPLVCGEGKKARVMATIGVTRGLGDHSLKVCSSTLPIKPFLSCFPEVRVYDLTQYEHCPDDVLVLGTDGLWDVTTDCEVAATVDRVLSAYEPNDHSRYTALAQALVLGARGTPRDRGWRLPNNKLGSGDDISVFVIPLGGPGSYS
UniProt O75688: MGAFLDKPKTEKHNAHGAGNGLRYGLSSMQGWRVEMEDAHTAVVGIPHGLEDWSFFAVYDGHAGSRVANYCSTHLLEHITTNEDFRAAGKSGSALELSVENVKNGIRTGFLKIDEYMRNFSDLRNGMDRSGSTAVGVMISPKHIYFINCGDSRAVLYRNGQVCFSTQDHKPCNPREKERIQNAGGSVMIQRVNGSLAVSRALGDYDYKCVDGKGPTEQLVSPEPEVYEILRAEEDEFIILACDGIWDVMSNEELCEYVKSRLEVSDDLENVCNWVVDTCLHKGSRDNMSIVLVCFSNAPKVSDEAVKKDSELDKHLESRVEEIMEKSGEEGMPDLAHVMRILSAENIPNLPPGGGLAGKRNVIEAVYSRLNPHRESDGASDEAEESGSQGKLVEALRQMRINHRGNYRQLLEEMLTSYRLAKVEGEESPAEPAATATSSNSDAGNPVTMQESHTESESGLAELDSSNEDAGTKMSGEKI
UniProt Q15435: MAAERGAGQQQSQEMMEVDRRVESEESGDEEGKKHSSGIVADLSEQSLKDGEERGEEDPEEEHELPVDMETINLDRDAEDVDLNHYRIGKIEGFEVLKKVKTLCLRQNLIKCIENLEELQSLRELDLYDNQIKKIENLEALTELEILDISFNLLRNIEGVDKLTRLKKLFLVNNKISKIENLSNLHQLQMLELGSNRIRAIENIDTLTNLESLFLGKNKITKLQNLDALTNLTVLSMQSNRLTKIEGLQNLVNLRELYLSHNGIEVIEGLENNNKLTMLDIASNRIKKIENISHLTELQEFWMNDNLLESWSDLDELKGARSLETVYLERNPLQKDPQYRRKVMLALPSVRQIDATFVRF
UniProt P02810: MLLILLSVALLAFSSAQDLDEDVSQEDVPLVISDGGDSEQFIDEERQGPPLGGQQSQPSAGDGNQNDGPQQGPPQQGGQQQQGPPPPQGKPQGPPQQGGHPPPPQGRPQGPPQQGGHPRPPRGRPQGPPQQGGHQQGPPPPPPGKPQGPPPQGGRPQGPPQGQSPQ
UniProt Q9NQV6: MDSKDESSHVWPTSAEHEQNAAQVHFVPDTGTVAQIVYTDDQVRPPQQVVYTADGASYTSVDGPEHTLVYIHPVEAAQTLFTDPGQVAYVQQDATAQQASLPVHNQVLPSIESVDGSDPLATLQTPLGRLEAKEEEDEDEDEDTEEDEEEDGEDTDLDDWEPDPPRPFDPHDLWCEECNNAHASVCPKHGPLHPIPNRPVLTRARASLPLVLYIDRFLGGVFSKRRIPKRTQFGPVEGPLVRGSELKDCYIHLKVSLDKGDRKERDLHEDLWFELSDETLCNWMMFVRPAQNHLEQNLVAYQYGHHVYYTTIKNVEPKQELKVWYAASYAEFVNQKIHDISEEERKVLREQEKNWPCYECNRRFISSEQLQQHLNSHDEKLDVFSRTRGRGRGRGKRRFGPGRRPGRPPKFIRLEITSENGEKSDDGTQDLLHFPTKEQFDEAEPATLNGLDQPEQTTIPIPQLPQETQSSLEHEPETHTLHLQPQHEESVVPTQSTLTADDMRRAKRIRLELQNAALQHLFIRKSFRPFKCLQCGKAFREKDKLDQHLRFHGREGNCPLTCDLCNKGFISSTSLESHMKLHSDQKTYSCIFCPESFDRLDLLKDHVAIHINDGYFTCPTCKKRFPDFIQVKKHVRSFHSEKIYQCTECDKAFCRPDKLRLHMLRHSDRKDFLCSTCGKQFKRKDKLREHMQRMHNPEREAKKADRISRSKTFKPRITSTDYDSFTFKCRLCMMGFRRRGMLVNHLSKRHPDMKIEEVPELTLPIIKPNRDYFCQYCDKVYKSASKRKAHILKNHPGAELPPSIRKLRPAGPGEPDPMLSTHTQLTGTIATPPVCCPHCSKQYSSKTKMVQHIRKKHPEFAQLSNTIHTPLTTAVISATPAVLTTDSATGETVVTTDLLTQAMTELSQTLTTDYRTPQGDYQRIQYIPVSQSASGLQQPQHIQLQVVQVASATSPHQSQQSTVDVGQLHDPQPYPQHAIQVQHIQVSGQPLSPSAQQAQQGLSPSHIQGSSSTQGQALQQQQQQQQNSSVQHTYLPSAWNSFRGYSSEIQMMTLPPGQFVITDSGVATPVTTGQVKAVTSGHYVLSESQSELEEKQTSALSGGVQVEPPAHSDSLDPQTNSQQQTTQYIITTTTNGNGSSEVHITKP
UniProt Q8NI37: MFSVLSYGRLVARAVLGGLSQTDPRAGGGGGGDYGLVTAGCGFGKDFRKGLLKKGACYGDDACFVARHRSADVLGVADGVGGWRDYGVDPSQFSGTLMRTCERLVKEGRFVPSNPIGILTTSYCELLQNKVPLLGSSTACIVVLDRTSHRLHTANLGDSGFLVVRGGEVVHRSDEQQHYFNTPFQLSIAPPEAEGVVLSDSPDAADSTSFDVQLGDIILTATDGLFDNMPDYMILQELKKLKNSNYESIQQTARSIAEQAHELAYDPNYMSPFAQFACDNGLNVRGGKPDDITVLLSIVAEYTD
UniProt Q9Y570: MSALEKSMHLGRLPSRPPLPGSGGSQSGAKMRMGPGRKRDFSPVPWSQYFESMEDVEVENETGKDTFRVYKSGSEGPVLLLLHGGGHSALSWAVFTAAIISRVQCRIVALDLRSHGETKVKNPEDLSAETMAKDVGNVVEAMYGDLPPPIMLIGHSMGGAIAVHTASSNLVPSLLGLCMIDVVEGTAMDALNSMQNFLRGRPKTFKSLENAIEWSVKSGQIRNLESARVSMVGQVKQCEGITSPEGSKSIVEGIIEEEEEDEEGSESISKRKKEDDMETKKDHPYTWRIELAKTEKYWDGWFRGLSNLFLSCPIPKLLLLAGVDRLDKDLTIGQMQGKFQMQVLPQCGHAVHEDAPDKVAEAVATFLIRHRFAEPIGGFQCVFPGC
UniProt Q6NWY9: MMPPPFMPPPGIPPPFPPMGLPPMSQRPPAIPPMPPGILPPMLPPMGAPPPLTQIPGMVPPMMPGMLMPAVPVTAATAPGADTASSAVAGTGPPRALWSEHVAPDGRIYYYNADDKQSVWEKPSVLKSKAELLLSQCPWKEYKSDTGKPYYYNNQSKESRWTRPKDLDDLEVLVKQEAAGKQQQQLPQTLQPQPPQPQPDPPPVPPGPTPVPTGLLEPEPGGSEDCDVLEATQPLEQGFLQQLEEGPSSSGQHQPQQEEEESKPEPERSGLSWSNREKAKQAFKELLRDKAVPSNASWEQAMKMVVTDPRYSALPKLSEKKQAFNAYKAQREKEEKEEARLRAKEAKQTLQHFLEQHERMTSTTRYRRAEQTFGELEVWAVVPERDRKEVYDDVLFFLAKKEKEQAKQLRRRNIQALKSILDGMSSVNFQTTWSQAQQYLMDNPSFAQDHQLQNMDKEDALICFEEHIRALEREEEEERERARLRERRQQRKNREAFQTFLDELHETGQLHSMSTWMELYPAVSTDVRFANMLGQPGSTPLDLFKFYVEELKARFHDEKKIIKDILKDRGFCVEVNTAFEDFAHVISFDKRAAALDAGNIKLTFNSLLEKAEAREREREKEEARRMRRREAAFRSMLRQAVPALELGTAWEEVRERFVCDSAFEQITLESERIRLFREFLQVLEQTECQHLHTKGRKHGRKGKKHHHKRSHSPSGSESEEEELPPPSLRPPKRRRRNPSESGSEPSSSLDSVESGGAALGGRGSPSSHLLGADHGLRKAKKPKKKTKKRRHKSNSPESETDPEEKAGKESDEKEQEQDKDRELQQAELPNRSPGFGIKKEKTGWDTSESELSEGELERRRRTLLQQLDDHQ
UniProt O43900: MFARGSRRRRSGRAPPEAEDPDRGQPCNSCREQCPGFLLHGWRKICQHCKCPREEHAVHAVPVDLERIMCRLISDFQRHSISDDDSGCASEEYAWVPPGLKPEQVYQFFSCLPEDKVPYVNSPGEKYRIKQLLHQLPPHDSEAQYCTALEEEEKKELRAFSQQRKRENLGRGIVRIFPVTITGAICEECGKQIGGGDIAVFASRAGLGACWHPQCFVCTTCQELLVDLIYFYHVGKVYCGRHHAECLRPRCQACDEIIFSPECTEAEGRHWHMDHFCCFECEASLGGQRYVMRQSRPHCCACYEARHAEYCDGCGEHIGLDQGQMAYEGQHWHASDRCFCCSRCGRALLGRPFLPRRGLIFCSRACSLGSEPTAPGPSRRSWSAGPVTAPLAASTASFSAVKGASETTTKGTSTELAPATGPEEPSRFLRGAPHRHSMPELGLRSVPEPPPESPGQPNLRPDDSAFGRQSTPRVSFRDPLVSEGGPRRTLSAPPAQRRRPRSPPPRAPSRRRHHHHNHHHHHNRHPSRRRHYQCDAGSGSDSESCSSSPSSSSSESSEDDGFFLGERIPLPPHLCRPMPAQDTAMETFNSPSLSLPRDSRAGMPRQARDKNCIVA

Tests used:
Experiment in all cases: log2 fold change, soluble protein after heating vs DMSO (PISA); higher = thermal stabilisation; K562 lysate, 10 uM; active = over 0.2 and 3.5 SD of the protein, either way, in both replicates (recomputed)
alvocidib = compound: CN1CC[C@H](c2c(O)cc(O)c3c(=O)cc(-c4ccccc4Cl)oc23)[C@H](O)C1 [alvocidib]
In short: (§1)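 Thermal stability, expressed as log-two fold change relative to solvent controls, is given from duplicates. Crude K562 extract in PBS pH 7.4 with 1 mM MgCl2, at 1 mg/mL protein, was treated with 10 μM compound for 30 min and heated in aliquots for 3 min across 48°C-58°C. After pooling, adjustment to 0.5% NP-40 at 4°C and centrifugation at 21,000xg for 90 min, supernatant protein was measured by TMTpro 16plex LC-MS/MS with channel sums equalised.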

Tubastatin A = compound: CN1CCc2c(c3ccccc3n2Cc2ccc(C(=O)NO)cc2)C1 [Tubastatin A]
In short: as §1

[1] = compound: CNC(=O)C1=CC=CC=C1NC2=NC(=NC=C2Cl)NC3=C(C=C(C=C3)N4CCOCC4)OC
In short: as §1

defactinib = compound: CNC(=O)c1ccc(Nc2ncc(C(F)(F)F)c(NCc3nccnc3N(C)S(C)(=O)=O)n2)cc1 [defactinib]
In short: as §1

[2] = compound: CNc1nc(-c2ccc3c(N)n[nH]c3c2)cc(N2C[C@@H](C(=O)NC3CCCCC3)CC[C@H]2C)n1
In short: as §1

encorafenib = compound: COC(=O)N[C@@H](C)CNc1nccc(-c2cn(C(C)C)nc2-c2cc(Cl)cc(NS(C)(=O)=O)c2F)n1 [encorafenib]
In short: as §1

[3] = compound: COC(=O)[C@H](CCSC)NC(=O)C1=C(C=C(C=C1)NC[C@H](CS)N)C2=CC=CC=C2
In short: as §1

alisertib = compound: COc1cc(Nc2ncc3c(n2)-c2ccc(Cl)cc2C(c2c(F)cccc2OC)=NC3)ccc1C(=O)O [alisertib]
In short: as §1

[4] = compound: COc1cc2nc(-c3cc(F)ccc3O)nc(N[C@@H]3CNC[C@H]3C(C)(C)O)c2cc1OC
In short: as §1

gefitinib = compound: COc1cc2ncnc(Nc3ccc(F)c(Cl)c3)c2cc1OCCCN1CCOCC1 [gefitinib]
In short: as §1

lapatinib = compound: CS(=O)(=O)CCNCc1ccc(-c2ccc3ncnc(Nc4ccc(OCc5cccc(F)c5)c(Cl)c4)c3c2)o1 [lapatinib]
In short: as §1

pictilisib = compound: CS(=O)(=O)N1CCN(Cc2cc3nc(-c4cccc5[nH]ncc45)nc(N4CCOCC4)c3s2)CC1 [pictilisib]
In short: as §1

crizotinib = compound: C[C@@H](Oc1cc(-c2cnn(C3CCNCC3)c2)cnc1N)c1c(Cl)ccc(F)c1Cl [crizotinib]
In short: as §1

[5] = compound: C[C@H](C1=CC=C(C=C1)C(=O)NC2=C3C=CNC3=NC=C2)N
In short: as §1

duvelisib = compound: C[C@H](Nc1ncnc2nc[nH]c12)c1cc2cccc(Cl)c2c(=O)n1-c1ccccc1 [duvelisib]
In short: as §1

gandotinib = compound: Cc1cc(Nc2cc(CN3CCOCC3)c3nc(C)c(Cc4ccc(Cl)cc4F)n3n2)n[nH]1 [gandotinib]
In short: as §1

tozasertib = compound: Cc1cc(Nc2cc(N3CCN(C)CC3)nc(Sc3ccc(NC(=O)C4CC4)cc3)n2)n[nH]1 [tozasertib]
In short: as §1

doramapimod = compound: Cc1ccc(-n2nc(C(C)(C)C)cc2NC(=O)Nc2ccc(OCCN3CCOCC3)c3ccccc23)cc1 [doramapimod]
In short: as §1

bafetinib = compound: Cc1ccc(NC(=O)c2ccc(CN3CC[C@H](N(C)C)C3)c(C(F)(F)F)c2)cc1Nc1nccc(-c2cncnc2)n1 [bafetinib]
In short: as §1

[6] = compound: Cc1cccc(CC(=O)N2CCc3c2ccc(-c2cn(C)c4ncnc(N)c24)c3F)n1
In short: as §1

Measured: log2 fold change

PPP3CB (UniProt P16298)
inactive: alvocidib -0.025 | Tubastatin A -0.012 | [1] 0.011 | defactinib -0.054 | [2] -0.007 | encorafenib -0.002 | [3] -0.009 | alisertib 0.029 | [4] 0.021 | gefitinib 0.013 | lapatinib -0.052 | pictilisib -0.009 | crizotinib 0.013 | [5] -0.126 | duvelisib 0.011 | gandotinib 0.039 | tozasertib 0.002 | doramapimod -0.019 | bafetinib -0.002 | [6] 0.086

PRELID1 (UniProt Q9Y255)
inactive: Tubastatin A -0.003 | defactinib -0.069 | alisertib -0.1 | gefitinib 0.129 | pictilisib -0.117 | crizotinib 0.089 | doramapimod -0.04 | bafetinib -0.134

PRPF40A isoform 3 (UniProt O75400)
inactive: Tubastatin A 0.092 | [1] -0.048 | encorafenib -0.195 | [3] 0.093 | [4] 0.038 | lapatinib -0.017 | tozasertib 0.042

PPM1J (UniProt Q5JR12)
inactive: [4] 0.066 | lapatinib 0.023

PPM1B isoform 2 (UniProt O75688)
inactive: Tubastatin A 0.005 | [2] -0.021 | encorafenib 0.063 | [3] 0.039 | alisertib -0.082 | [4] 0.02 | gefitinib 0.12 | lapatinib -0.029 | pictilisib -0.003 | duvelisib 0.084 | tozasertib -0.063 | bafetinib -0.025

PPP1R7 isoform 2 (UniProt Q15435)
inactive: Tubastatin A -0.035 | [4] -0.038 | lapatinib 0.001

PPT2, A0A140T9Y1
inactive: alisertib -0.144 | gefitinib 0.006

PPIP5K2 (UniProt H0Y9S9)
inactive: Tubastatin A 0.061 | [1] -0.036 | defactinib 0.045 | [2] -0.092 | encorafenib 0.164 | [3] 0.027 | [4] -0.074 | lapatinib 0.099 | pictilisib -0.153 | duvelisib 0.004 | tozasertib 0.029 | bafetinib -0.15

PRH1 (UniProt P02810)
inactive: alvocidib -0.18 | [5] 0.52 | gandotinib -0.899 | [6] 1.41

Reprinted at random: two records from the list.
PPM1J (UniProt Q5JR12)
inactive: [4] 0.066 | lapatinib 0.023

PRPF40A isoform 3 (UniProt O75400)
inactive: Tubastatin A 0.092 | [1] -0.048 | encorafenib -0.195 | [3] 0.093 | [4] 0.038 | lapatinib -0.017 | tozasertib 0.042

Carrying on:

PPP2CB (UniProt E5RHC1)
inactive: alvocidib -0.007 | Tubastatin A 0.251 | [2] -0.203 | alisertib -0.05 | [4] 0.195 | gefitinib -0.171 | lapatinib -0.092 | pictilisib -0.154 | crizotinib -0.162 | [5] -0.287 | duvelisib 0.328 | gandotinib -0.554 | doramapimod 0.114 | bafetinib -0.151 | [6] 0.034

PRDM10 isoform 6 (UniProt Q9NQV6)
inactive: Tubastatin A -0.009 | [1] 0.077 | defactinib 0.009 | encorafenib -0.027 | [3] -0.097 | [4] -0.034 | lapatinib -0.067 | pictilisib -0.005 | tozasertib 0.01 | bafetinib -0.123

PPTC7 (UniProt Q8NI37)
inactive: Tubastatin A -0.013 | defactinib -0.08 | [2] -0.094 | duvelisib 0

PROSER3, A0A2R8Y8D9
inactive: [2] 0.021 | crizotinib -0.057 | duvelisib 0.004 | doramapimod -0.079

PPME1 (UniProt Q9Y570)
inactive: [1] 0.125 | [2] -0.065 | encorafenib -0.029 | [3] -0.059 | [4] 0.014 | lapatinib 0.002 | pictilisib 0.038 | duvelisib -0.017 | tozasertib 0.072 | bafetinib -0.081

PRDM15 (UniProt P57071)
inactive: Tubastatin A 0.01 | [2] -0.002 | duvelisib -0.308

PRPF40B (UniProt Q6NWY9)
inactive: crizotinib -0.163 | doramapimod 0

PPP4R4 (UniProt Q6NUP7)
inactive: Tubastatin A 0.136 | [1] 0.066 | defactinib -0.09 | [2] 0.689 | encorafenib -0.183 | [3] -0.002 | alisertib -0.135 | [4] 0.084 | gefitinib -0.017 | lapatinib -0.15 | pictilisib -0.071 | crizotinib -0.12 | duvelisib 0.019 | tozasertib -0.364 | doramapimod -0.165 | bafetinib 0.012

PRICKLE3 (UniProt O43900)
inactive: Tubastatin A -0.217 | pictilisib -0.185 | bafetinib 0.294
